# Experimental data taken from the supplement of paper PMC11732987, “Enantioselective OTUD7B fragment discovery through chemoproteomics screening and high-throughput optimisation” (Communications Chemistry, 2025).
# Chains of the proteins cited; added tags and fusions are not shown. Lines headed by an entry give the natural chain unless they say otherwise; changes in a name come on top.
# UniProt Q86VP1, whole entry, looked up: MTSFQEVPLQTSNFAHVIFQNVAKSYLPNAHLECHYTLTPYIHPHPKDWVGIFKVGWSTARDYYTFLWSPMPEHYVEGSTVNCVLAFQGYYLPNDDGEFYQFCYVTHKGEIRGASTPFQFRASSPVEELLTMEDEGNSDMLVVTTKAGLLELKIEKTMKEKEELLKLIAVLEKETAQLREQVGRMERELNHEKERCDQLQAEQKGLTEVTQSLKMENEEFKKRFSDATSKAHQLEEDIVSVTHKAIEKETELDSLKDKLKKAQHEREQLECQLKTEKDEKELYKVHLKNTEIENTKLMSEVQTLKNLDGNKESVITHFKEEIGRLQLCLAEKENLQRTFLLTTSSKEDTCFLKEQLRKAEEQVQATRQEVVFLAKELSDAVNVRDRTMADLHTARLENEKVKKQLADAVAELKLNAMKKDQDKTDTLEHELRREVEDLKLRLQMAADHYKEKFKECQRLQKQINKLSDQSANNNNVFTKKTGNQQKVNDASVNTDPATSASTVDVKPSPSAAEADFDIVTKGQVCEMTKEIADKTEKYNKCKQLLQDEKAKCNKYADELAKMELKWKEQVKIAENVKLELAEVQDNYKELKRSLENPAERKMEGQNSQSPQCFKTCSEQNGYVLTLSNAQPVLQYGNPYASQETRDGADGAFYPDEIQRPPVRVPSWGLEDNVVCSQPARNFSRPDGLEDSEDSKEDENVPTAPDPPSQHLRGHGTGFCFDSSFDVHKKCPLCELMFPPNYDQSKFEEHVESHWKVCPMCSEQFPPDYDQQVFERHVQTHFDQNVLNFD
# UniProt Q9NUW8, whole entry, looked up: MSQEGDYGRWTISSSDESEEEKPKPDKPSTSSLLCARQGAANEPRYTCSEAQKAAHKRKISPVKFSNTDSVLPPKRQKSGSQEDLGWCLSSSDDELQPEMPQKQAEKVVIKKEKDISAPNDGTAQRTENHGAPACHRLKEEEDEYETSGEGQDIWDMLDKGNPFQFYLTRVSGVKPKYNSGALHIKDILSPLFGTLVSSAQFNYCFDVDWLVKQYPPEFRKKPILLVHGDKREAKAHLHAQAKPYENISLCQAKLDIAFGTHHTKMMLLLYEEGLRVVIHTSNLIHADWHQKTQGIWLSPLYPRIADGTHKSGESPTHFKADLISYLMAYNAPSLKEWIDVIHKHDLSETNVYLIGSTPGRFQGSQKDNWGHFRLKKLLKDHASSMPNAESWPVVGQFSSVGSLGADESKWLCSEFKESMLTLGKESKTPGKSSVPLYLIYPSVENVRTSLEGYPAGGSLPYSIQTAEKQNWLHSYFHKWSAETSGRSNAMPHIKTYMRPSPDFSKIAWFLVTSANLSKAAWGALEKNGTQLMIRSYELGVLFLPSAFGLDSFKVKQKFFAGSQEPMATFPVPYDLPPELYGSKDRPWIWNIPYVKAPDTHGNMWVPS
# UniProt Q96C24: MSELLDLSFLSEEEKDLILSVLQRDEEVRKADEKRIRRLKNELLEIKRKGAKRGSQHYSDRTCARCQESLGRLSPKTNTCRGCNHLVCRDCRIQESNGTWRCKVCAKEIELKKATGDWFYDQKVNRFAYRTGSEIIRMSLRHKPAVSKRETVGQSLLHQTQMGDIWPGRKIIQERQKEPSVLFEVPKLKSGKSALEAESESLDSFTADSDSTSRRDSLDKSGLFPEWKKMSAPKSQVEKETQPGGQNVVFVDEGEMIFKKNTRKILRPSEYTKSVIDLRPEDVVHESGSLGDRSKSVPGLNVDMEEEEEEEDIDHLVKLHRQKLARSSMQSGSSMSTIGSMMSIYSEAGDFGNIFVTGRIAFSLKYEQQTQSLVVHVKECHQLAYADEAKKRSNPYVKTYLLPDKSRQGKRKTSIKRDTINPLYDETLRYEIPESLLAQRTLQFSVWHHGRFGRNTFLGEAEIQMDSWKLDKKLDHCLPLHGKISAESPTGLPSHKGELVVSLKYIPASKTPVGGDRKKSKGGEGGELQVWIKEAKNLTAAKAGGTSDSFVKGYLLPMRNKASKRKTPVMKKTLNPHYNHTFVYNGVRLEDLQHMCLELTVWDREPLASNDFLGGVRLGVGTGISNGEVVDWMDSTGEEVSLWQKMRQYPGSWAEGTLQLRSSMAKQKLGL
# UniProt Q13395: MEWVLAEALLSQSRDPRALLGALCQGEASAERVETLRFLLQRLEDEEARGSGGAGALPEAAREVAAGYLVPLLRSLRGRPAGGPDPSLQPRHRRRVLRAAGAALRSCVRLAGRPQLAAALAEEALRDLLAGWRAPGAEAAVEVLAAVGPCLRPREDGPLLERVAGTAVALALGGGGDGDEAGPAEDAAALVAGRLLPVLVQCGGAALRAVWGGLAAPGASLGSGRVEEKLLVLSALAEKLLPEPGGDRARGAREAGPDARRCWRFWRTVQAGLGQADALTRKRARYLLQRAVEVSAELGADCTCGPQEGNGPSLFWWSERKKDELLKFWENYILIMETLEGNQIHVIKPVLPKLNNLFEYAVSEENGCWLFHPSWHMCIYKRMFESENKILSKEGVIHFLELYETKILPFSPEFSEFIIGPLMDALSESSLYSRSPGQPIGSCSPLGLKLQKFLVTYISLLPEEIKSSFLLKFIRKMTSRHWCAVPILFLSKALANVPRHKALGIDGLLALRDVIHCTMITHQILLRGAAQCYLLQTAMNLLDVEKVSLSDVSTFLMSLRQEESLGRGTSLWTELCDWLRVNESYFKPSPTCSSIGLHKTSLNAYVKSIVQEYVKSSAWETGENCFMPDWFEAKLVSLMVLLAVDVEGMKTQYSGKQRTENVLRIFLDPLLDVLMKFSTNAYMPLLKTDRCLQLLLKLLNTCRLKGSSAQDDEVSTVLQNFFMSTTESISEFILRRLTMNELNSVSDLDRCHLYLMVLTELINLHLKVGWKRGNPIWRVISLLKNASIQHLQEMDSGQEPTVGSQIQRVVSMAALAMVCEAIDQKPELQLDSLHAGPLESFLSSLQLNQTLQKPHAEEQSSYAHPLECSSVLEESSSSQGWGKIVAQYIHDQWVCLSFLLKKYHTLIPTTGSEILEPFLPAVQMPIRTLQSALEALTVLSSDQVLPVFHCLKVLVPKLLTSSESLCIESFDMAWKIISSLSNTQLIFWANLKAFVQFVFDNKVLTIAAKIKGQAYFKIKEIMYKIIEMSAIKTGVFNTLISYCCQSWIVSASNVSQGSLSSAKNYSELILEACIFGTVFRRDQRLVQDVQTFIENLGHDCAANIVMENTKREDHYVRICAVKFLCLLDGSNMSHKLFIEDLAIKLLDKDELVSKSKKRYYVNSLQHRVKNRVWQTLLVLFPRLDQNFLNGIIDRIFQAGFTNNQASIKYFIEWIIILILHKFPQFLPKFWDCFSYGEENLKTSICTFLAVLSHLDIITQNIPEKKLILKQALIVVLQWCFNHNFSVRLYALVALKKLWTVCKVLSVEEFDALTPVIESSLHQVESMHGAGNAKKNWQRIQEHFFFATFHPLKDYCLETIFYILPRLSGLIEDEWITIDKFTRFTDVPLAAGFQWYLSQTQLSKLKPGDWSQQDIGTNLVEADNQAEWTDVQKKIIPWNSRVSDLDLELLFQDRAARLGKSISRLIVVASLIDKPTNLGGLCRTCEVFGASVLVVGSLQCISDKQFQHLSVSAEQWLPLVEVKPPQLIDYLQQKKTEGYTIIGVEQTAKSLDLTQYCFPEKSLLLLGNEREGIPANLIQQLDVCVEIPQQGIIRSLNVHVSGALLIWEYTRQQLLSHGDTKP
# UniProt Q9Y4P3: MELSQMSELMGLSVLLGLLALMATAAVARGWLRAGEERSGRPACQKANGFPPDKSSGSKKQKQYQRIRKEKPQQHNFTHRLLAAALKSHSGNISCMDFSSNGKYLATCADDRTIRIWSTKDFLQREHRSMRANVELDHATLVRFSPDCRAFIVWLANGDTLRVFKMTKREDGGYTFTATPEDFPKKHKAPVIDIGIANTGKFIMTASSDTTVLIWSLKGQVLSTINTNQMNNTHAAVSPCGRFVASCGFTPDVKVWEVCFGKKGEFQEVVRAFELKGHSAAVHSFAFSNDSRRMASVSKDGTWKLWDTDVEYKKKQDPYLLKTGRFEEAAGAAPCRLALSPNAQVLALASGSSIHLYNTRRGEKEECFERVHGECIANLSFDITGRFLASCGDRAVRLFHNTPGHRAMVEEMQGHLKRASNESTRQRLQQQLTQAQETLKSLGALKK
# UniProt Q9Y6I9: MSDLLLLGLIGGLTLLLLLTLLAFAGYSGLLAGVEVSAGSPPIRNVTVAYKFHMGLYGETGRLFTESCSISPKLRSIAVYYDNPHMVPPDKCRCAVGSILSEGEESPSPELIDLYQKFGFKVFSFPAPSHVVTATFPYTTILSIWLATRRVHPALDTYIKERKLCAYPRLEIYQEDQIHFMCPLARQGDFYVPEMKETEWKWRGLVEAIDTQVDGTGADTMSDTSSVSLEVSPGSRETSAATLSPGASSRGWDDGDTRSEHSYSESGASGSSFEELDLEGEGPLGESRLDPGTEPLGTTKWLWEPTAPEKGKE
# Some of the results follow. The data scatter; read single values as rough.
# Compound: ClCC(=O)N[C@@H]1CCCc2ccccc12
# Assay: log2 mean competition ratio of IA-DTB cysteine labelling (DMSO/compound) (log2 ratio); higher = stronger cysteine engagement by compound
# Settings: 50 µM; treatment time: 4 h; cell line lysate: HEK293T
# Method: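 IA-DTB competitive cysteine chemoproteomics in HEK293T RIPA lysate. Lysates were treated with compound 29 or 30 at 50 or 200 µM for 4 h, then IA-DTB (500 µM, 1 h), trypsin-digested, NeutrAvidin-enriched and analysed by diaPASEF. Competition ratio = intensity DMSO / intensity compound (n=4 treated, n=64 DMSO); binding: mean log2 CR ≥ 1 and p ≤ 0.05 plus QC filters. Target is the cysteine site.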
row,Target,log2 mean competition ratio
1,TET2 C501 (UniProt Q6N021),0.24
2,TAX1BP1 C350 (UniProt Q86VP1),-0.223
3,TDP2 C6 (UniProt O95551),-0.151
4,TDP1 C48 (UniProt Q9NUW8),0.125
5,TDRD3 C98 (UniProt Q9H7E2),0.196
6,TDP1 C135 (UniProt Q9NUW8),0.0815
7,TARS1 C630 (UniProt P26639),-0.345
8,SYTL4 C477 (UniProt Q96C24),0.0781
9,TARBP1 C443 (UniProt Q13395),0.0236
10,TBL2 C335 (UniProt Q9Y4P3),0.123
11,THOC2 C1111,-0.00169
12,SZT2 C1152 (UniProt Q5T011),-0.427
13,TANGO6 C286 (UniProt Q9C0B7),-0.327
14,TEX264 C68 (UniProt Q9Y6I9),-0.0698
15,TASOR C690 (UniProt Q9UK61),0.0423
16,TACC3 C749,0.187
17,TBL2 C108 (UniProt Q9Y4P3),-0.0796
18,TBC1D9B C308 (UniProt Q66K14),0.268
19,SYT2 C275,0.0464
20,TEPSIN C295,0.0911

# Same assay, conditions: 200 µM; treatment time: 4 h; cell line lysate: HEK293T
row,Target,log2 mean competition ratio
1,TET2 C501 (UniProt Q6N021),0.0288
2,TAX1BP1 C350 (UniProt Q86VP1),0.159
3,TDP2 C6 (UniProt O95551),-0.0219
4,TDP1 C48 (UniProt Q9NUW8),0.116
5,TDRD3 C98 (UniProt Q9H7E2),0.272
6,TDP1 C135 (UniProt Q9NUW8),-0.138
7,TARS1 C630 (UniProt P26639),0.188
8,SYTL4 C477 (UniProt Q96C24),-0.27
9,TARBP1 C443 (UniProt Q13395),-0.0285
10,TBL2 C335 (UniProt Q9Y4P3),0.197
11,THOC2 C1111,-0.097
12,SZT2 C1152 (UniProt Q5T011),-0.193
13,TANGO6 C286 (UniProt Q9C0B7),0.207
14,TEX264 C68 (UniProt Q9Y6I9),-0.0676
15,TASOR C690 (UniProt Q9UK61),0.0948
16,TACC3 C749,-0.206
17,TBL2 C108 (UniProt Q9Y4P3),-0.0612
18,TBC1D9B C308 (UniProt Q66K14),-0.241
19,SYT2 C275,0.216
20,TEPSIN C295,0.219
